Test results from publication doi:10.1101/738179.
These are yes or no findings as the source states them, for the method shown. Some results given as binding are weak or reduced against the parent protein; the word gives no strength.

T1: Sfr1N (residues 1-176 of Sfr1) (S. pombe) (UniProt Q9USV1)
T1 sequence: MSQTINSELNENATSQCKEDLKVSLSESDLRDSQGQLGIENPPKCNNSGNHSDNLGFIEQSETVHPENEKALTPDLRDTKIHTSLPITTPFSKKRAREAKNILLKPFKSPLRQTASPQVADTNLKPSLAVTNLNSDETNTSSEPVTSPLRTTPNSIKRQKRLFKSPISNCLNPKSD

T2: full-length Sfr1 (S. pombe) (UniProt Q9USV1)
T2 sequence: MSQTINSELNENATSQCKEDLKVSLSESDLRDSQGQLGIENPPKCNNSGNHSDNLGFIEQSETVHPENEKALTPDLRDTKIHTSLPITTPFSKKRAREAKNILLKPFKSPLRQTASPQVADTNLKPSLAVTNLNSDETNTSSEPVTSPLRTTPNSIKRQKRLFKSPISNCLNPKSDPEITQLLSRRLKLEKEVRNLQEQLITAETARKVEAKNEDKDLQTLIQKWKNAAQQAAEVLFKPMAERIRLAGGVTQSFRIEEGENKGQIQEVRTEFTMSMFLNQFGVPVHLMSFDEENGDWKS


Columns and labels:
Rad51 (S. pombe) = Rad51 (S. pombe) (UniProt P36601); assay: SEC
[1] = molecular target: T1, Sfr1N (residues 1-176 of Sfr1) (S. pombe); assay: NMR titration
[2] = molecular target: T2, full-length Sfr1 (S. pombe); assay: co-purification

| Binder | binding (Rad51 (S. pombe)) | binding [1] | binding [2] |
| --- | --- | --- | --- |
| Rad51 (protein, UniProt P36601 1-365) MADTEVEMQVSAADTNNNENGQAQSNYEYDVNVQDEEDEAAAGPMPLQMLEGNGITASDIKKIHEAGYYTVESIAYTPKRQLLLIKGISEAKADKLLGEASKLVPMGFTTATEYHIRRSELITITTGSKQLDTLLQGGVETGSITELFGEFRTGKSQICHTLAVTCQLPIDMGGGEGKCLYIDTEGTFRPVRLLAVADRYGLNGEEVLDNVAYARAYNADHQLELLQQAANMMSESRFSLLVVDSCTALYRTDFSGRGELSARQMHLARFMRTLQRLADEFGIAVVITNQVVAQVDGISFNPDPKKPIGGNILAHSSTTRLSLRKGRGEQRICKIYDSPCLPESEAIFAINSDGVGDPKEIIAPV | binds | binds weakly | – |
| Swi5 (protein, UniProt Q9UUB7 1-85) MEKSQLESRVHLLEQQKEQLESSLQDALAKLKNRDAKQTVQKHIDLLHTYNEIRDIALGMIGKVAEHEKCTSVELFDRFGVNGSE | – | – | binds |
